# Data published in PubChem BioAssay AID2417 (National Center for Advancing Translational Sciences (NCATS), 2010).
# The whole screen tested about 140,000 compounds, of which about 4,300 (3.1%) were called active. The shares of active, inactive and inconclusive entries below differ from those in the screen.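 How the source made its calls: active means readout at or below -70, meaning at least 70% loss of cells showing the perinucleolar compartment, a nuclear body marking cancer cells; inconclusive means readout between -30 and a set limit; inactive means the rest.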
# Assay: High Content Assay for Compounds that inhibit the Assembly of the Perinucleolar Compartment;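 further: plate controls were DMSO wells for no effect and camptothecin positive control wells for full effect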
# Conditions: PC3M PTB-GFP, PNC prevalence imaging, 16 h; at 10 µM; active compounds read low
# How it was run: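 PC3M cells stably expressing PTB-GFP, 750–1000 cells/well, treated 16 h at 37 °C with compound (23 nl of library stock), in duplicate. After paraformaldehyde fixation and Hoechst stain, imaged at 20x; PNC prevalence scored by image analysis.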
row,Compound,"activity change (PNC), negative = inhibition"
1,CC(NC(=O)c1ccc([N+](=O)[O-])cc1[N+](=O)[O-])c1ccc(-c2ccccc2)cc1 (stereo not given),inconclusive: -75%
2,O=C(Nc1ccc(CN2CCOCC2)cc1)c1ccc(-c2cccc(Cl)c2)o1,inactive: 19.8%
3,COC(=O)c1ccc(-c2nc3cc(Cl)c(N)cc3s2)cc1,inconclusive: -43.4%
4,Cc1ccccc1-n1nnnc1Sc1nnnn1-c1ccccc1,inactive: 0.206%
5,Cc1cccc(-n2c(CNC(=O)c3ccc(S(=O)(=O)N(C)C)cc3)nnc2SCC(=O)Nc2ccc(F)cc2)c1,inconclusive: -33.1%
6,Nc1[nH]c(=O)ncc1F,inactive: 12.3%
7,Cc1ccc(S(=O)(=O)Nc2ccc(=O)n(Cc3ccc(Cl)c(Cl)c3)c2)cc1,inconclusive: -31.9%
8,CC(C)(C)OC(=O)N1CC(O)CC1C(=O)OCC(=O)c1ccc(Cl)cc1 (stereo not given),inconclusive: -60.2%
9,CCN(CC)c1nc2nonc2nc1N(CC)CC,inconclusive: -30.3%
10,O=C1CSC(=O)N1CCOCCN1C(=O)CSC1=O,inconclusive: -48.2%
11,O=C(COc1ccc(S(=O)(=O)N2CCCC2)cc1Cl)N1CCN(c2ccccc2)CC1,inconclusive: -40.7%
12,COc1ccc(CCN2C(=O)c3cccc4c(C(=O)N5CCCCC5)ccc(c34)C2=O)cc1OC,inactive: 17.1%
13,O=C(Nc1ccc(S(=O)(=O)Nc2ncccn2)cc1)c1cccnc1,inconclusive: -31.5%
14,C=CCN(C(=O)CNC(=O)c1ccco1)C(C(=O)NC1CCCCC1)c1ccc(OC)cc1 (stereo not given),inactive: -18.2%
15,O=C(O)CCCNS(=O)(=O)c1cccc2nsnc12,inconclusive: -39%
16,CCCOc1c(Br)cc(/C=N/O)cc1OC,inconclusive: -43.8%
17,COc1cc(C(=O)Nc2ccc(N(C)C)cc2)cc(OC)c1OC,inactive: 8.12%
18,CCN(CC)c1ccc(NC(=O)CN2C(=O)CC(C)(C)S(=O)(=O)c3ccccc32)c(C)c1,inconclusive: -45.3%
19,CCn1c(COc2cccc(OC)c2)nnc1SCC(=O)Nc1cccc(OC)c1,inconclusive: -48.2%
20,CC1(C)CC(=O)C2=C(C1)Nc1[nH]c(=S)[nH]c(=O)c1C2c1ccccc1 (stereo not given),inactive: -21.5%
21,CCOC(=O)C1CN(S(=O)(=O)c2ccc(F)cc2)C1,inconclusive: -36.1%
22,N#Cc1c(-c2ccccc2F)cc(C2CC2)nc1SCC(=O)c1cccs1,inactive: 6.05%
23,COc1ccccc1-c1noc(CCC(=O)Nc2cccc(C)c2)n1,inactive: 7.32%

# 2 successive entries from above, for reference:
row,Compound,"activity change (PNC), negative = inhibition"
18,CCN(CC)c1ccc(NC(=O)CN2C(=O)CC(C)(C)S(=O)(=O)c3ccccc32)c(C)c1,inconclusive: -45.3%
19,CCn1c(COc2cccc(OC)c2)nnc1SCC(=O)Nc1cccc(OC)c1,inconclusive: -48.2%

# (next part)

row,Compound,"activity change (PNC), negative = inhibition"
1,CC(C)OC(=O)c1c2nc3ccccc3nc2n2c1[nH]c(=O)c1ccccc12,inactive: 11.3%
2,COc1ccccc1C1=NOC(Cn2c(=O)c3c(ncn3C)n(C)c2=O)C1 (stereo not given),inconclusive: -54.1%
3,CN(C)c1ccc(/C=N\Nc2nc(-c3ccccc3)cc(=O)[nH]2)cc1,active: -118%
4,COc1ccc(C)cc1NC(=O)C(=O)NCc1ccncc1,inconclusive: -35%
5,CN(CC(=O)N1CCN(c2ccccn2)CC1)S(=O)(=O)c1ccc2ccccc2c1,inconclusive: -43.3%
6,Cn1nc(-c2ccc(N3CCOCC3)c(NS(=O)(=O)c3ccc(Cl)cc3)c2)c2ccccc2c1=O,inactive: -10.6%
7,COC(=O)c1c(/N=C/NOCc2ccc(Cl)cc2)sc2c1CCN(c1ncc(C(F)(F)F)cc1Cl)C2,inconclusive: -62.3%
8,Cc1cc(C(=O)N/N=C/c2ccc(C)o2)c2ccccc2n1,active: -94.3%
9,c1ccc(OCCOc2cccc3cccnc23)cc1,inconclusive: -63.5%
10,CCCc1nn(C)c(C(=O)Nc2ccc3ccccc3c2)c1Cl,inactive: -25.4%
11,CC(C)CC(=O)NS(=O)(=O)c1ccc(N)cc1,inconclusive: -44.5%
12,O=C1CCC(C(=O)OCC(=O)c2c[nH]c3ccccc23)=NN1,inconclusive: -34.2%
13,CC(C)(C)OC(=O)N[C@@H](Cc1ccccc1)c1nnc(S(=O)(=O)Cc2cccc(F)c2)o1,active: -107%
14,c1ccc(Cc2nnc3sc(C4COc5ccccc5O4)nn23)cc1 (stereo not given),inconclusive: -68.3%
15,COc1ccc(CCNC(=O)C2CCN(S(=O)(=O)c3ccc(-n4cnnn4)cc3)CC2)cc1OC,inconclusive: -65.4%
16,Cc1nc(CC(=O)N2CCN(c3cccc(C)c3C)CC2)cs1,inconclusive: -30.6%
17,Cc1cccc(OC(=O)C2C(c3ccccc3)C(C(=O)O)C2c2ccccc2)c1 (stereo not given),inconclusive: -48.3%
18,CCn1c(SCC(=O)N2CCN(c3ccc(F)cc3)CC2)nc2ccccc2c1=O,inactive: -15.1%
19,Fc1cccc(Cl)c1Cc1noc(/C=C/c2ccccc2)n1,inconclusive: -33%
20,O=C(Nc1ccccc1F)c1ccccc1-c1ccc(C(F)(F)F)cc1,inactive: 16.7%
21,CCOc1ccc(N=Nc2c(=O)[nH]n3c(C)cc(C)nc23)cc1,inactive: 1.77%
22,CCCn1nnc2sc3c(c2c1=O)CCC(C)C3 (stereo not given),inconclusive: -35.1%
